Laboratory results from publication PMC4979448.

Amino acid sequences for entries named in this document (tags omitted). A change or cut given only in a name is not applied to a line headed by its entry.
UniProt A4I001: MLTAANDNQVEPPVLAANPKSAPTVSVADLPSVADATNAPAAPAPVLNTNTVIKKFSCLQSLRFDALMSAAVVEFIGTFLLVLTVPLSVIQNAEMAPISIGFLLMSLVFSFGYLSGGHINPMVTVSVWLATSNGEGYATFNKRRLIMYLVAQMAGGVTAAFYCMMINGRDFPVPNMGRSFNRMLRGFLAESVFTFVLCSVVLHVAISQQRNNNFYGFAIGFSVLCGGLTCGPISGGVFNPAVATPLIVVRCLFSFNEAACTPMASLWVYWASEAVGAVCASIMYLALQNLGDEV
UniProt Q07817: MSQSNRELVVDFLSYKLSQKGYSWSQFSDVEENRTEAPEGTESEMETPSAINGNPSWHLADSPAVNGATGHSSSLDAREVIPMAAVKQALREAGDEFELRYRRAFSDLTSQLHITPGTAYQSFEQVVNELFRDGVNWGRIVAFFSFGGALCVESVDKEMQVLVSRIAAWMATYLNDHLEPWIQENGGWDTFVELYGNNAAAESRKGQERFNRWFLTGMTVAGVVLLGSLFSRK

Assays:
[1] = molecular target: Myc-tagged Li-BH3AQP (Leishmania infantum) (UniProt A4I001); test: co-IP; Myc-Li-BH3AQP and Flag-Bcl-XL coexpressed in HEK293T cells for 24 h; whole-cell extracts; immunoprecipitation with resin-conjugated anti-Myc antibody; western blot with anti-Flag
[2] = molecular target: human Bcl-XL bound to the DNA-binding domain of GAL4 (human) (UniProt Q07817); test: two-hybrid; S. cerevisiae AH109; Bcl-XL on the Gal4 DNA-binding domain as bait (pGBKT7), Li-BH3AQP on the Gal4 activation domain as prey (pGADT7); growth on -Leu/-Trp/-Ade/-His + x-alpha-Gal

Flag-tagged human Bcl-XL (from UniProt Q07817-1 1-233)
binding [1]: binds

Li-BH3AQP bound to the activation domain of GAL4 (from UniProt A4I001)
binding [2]: binds

These are yes or no findings as the source states them, for the method shown. Binding calls can cover weak binding; strength is not graded here. For some assays here: Binding seen in cells or lysates may run through a third protein.
